Read-outs that look alike come from different tables or passages of the source.
Key:
[1] = for average of radioactivity density: blood plasma
Description: (§1) Moreover, the condition of the transdermally administration in association with the treatment of applying current is as follows.
(§2) This was funneled into a patch comprising an electrode and an adhesion layer, and cooled down at −80° C. to obtain a desired drug product.
Two NZ family male rabbits to be devoted to the test was bought from […] LABES Co., Ltd., (Charles River Japan, Inc.). […] The observation of the animal during the preliminary breeding and the test, as to a hair coat, a skin and a excretory substance was carried out every day.
The administration route: the transdermally administration in association with the treatment of applying current
The radioactivity density assay in the blood plasma was carried out as follows.
A sample for assay was treated by adding the solubilizing agent, and the measurement of the sample was carried out by using the liquid scintillation counter (LSC-1000, ALOKA). The limit of determinate quantity was two folds of the background, and the lesser value of the limit was determined as ND. The radioactivity density assay in the blood plasma was calculated from the measured value.
The radioactivity density is used as indication pointer, the calibrated concentration of the chemical drug converted with unaltered substance was calculated by the following formula. The calibrated concentration of the chemical drug (μg eq./mL)=The radioactivity density in the sample (dpm/mL)/{the amount of the administration radioactivity (dpm)/the amount of the administration chemical drug (μg)}

[2] = Description: as §1, §2
(§3) After that, an embedded freezing block was directed to the cutter of the microtome stage for mounting (CRYOMACROCUT, Leica), and a femoral region thereof was directed to the front, and a neck region was directed to the backside, and was fixed with being in close contact with the backside of the leg to the stage for mounting. When the stage for mounting of microtome was slid, the cutter was contacted perpendicular with the narrow side of the rectangular, the upper surface of this was chipped off as a sliced segment, the sliced segment was in close contact to the adhesive tape, and removed. This operation was repeated a couple dozens times, it was cleaved from the front portion of the knee to the backside portion, a segment of the administration and current-carrying part was (1) to (7) (from the front to the backside) in order of precedence.

[3] = individual administered for 120 minutes, exposure […]
Excerpt: as §3

[4] = pH 2
[5] = rabbit (1) for 120 min., segment No. (5)
[6] = rabbit (2) for 30 min., segment No. (2)
[7] = rabbit (2) for 30 min., segment No. (3)
[8] = rabbit (2) for 30 min., segment No. (5)
[9] = rabbit (2) for 30 min., segment No. (6)

In the case of `CC1CC2C3CCC4=CC(=O)C=CC4(C)C3(F)C(O)CC2(C)C1(O)C(=O)COP(=O)([O-])[O-].[Na+].[Na+]` (stereo not drawn) [[^3H] Betamethasone-21-phosphate disodium salt], the “average of radioactivity density” value ([1]; 30 min. administration individual, 10 minutes) is reported as 271 dpm/mL, the “average of radioactivity density” value ([1]; 30 min. administration individual, 20 minutes) is reported as 937 dpm/mL and the “average of radioactivity density” value ([1]; 30 min. administration individual, 30 minutes) is reported as 3155 dpm/mL. For the same compound, the “average of radioactivity density” value ([1]; 120 min. administration individual, 10 minutes) was 1473.0 dpm/mL, the “average of radioactivity density” value ([1]; 120 min. administration individual, 20 minutes) was 3467.0 dpm/mL and the “average of radioactivity density” value ([1]; 120 min. administration individual, 30 minutes) was 8575.0 dpm/mL. For the same compound, the “average of radioactivity density” value ([1]; 120 min. administration individual, 60 minutes) was 24502.2 dpm/mL, the “average of radioactivity density” value ([1]; 120 min. administration individual, 90 minutes) was 33662.0 dpm/mL and the “average of radioactivity density” value ([1]; 120 min. administration individual, 120 minutes) was 43142.0 dpm/mL. The “time of maximum numeric value of the radioactive concentration in the blood plasma” value ([1]; individual administered for 120 minutes, still tended to rise) was 120 min, the “concentration of the chemical drug in the epithelial region tissue, 30 minutes individual compared with 120 minutes individual” value ([2]; high density region in the epithelium) was 1.35 folds and the “radioactivity density, articular capsule surrounding tissue” value [2, 5] was 0.41 (PSL−BG)/area. The “radioactivity density, inside of perimysia” value (shortened to “radioactivity density, inside”) [2, 5] was 18.03 (PSL−BG)/area, the “radioactivity density, outside of perimysia” value (“radioactivity density, outside” for short) [2, 5] was 39.93 (PSL−BG)/area and the “radioactivity density, maximum blackened region” value ([2]; rabbit (1) for 120 min., segment No. (5), disodium salt) was 807 (PSL−BG)/area. For the same compound, the “radioactivity density, articular capsule surrounding tissue” value [2, 6] was 0.09 (PSL−BG)/area, the “radioactivity density, inside” value [2, 6] was 0.62 (PSL−BG)/area and the “radioactivity density, maximum blackened region” value [2, 6] was 42.49 (PSL−BG)/area. For the same compound, the “radioactivity density, outside” value [2, 6] was 45.44 (PSL−BG)/area, the “radioactivity density, articular capsule surrounding tissue” value [2, 7] was 0.03 (PSL−BG)/area and the “radioactivity density, inside” value [2, 7] was 24.62 (PSL−BG)/area. For the same compound, the “radioactivity density, maximum blackened region” value [2, 7] was 97.16 (PSL−BG)/area, the “radioactivity density, outside” value [2, 7] was 47.25 (PSL−BG)/area and the “radioactivity density, articular capsule surrounding tissue” value [2, 8] was 0.42 (PSL−BG)/area. For the same compound, the “radioactivity density, inside” value [2, 8] was 13.87 (PSL−BG)/area, the “radioactivity density, maximum blackened region” value [2, 8] was 1091.13 (PSL−BG)/area and the “radioactivity density, outside” value [2, 8] was 49.69 (PSL−BG)/area. The “radioactivity density, articular capsule surrounding tissue” value [2, 9] was 0.3 (PSL−BG)/area, the “radioactivity density, inside” value [2, 9] was 12.3 (PSL−BG)/area and the “radioactivity density, maximum blackened region” value [2, 9] was 843.74 (PSL−BG)/area. For the same compound, the “radioactivity density, outside” value [2, 9] was 57.07 (PSL−BG)/area and the “intensity of the radioactivity, knee arthrosis of non-administration and non-treatment” value [3] was “background level”.

With `C[C@H]1C[C@H]2[C@@H]3CCC4=CC(=O)C=C[C@]4(C)[C@@]3(F)[C@@H](O)C[C@]2(C)[C@@]1(O)C(=O)COP(=O)([O-])[O-].[Na+].[Na+]` [betamethasone sodium phosphate] the “stability of the chemical drug” value [4] was “increased according to the increase of pH value”.
